Assay results as given in PubChem BioAssay AID2685 (National Center for Advancing Translational Sciences (NCATS), 2010).
The other results are listed elsewhere or left out. The main result of the screen is listed elsewhere. These columns were measured beside it and carry no call. The list favours compounds with an active or inconclusive main result. Potencies come from curve fits of mixed quality, noted in brackets.

Experiment: qHTS Assay for Lipid Storage Modulators in Drosophila S3 Cells;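 as to cell number change: cells counted by Cell Tracker Red CMTPX staining in the red channel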
Settings: BODIPY lipid droplet fluorescence, 18-24 h; for cell number change: measured here: cell count max response, cells fed with added oleic acid
Procedure, shortened: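 Laser-scanning cytometry quantifies lipid droplet accumulation (500–530 nm total intensity; droplet/cell object ratio) in oleic acid-fed (400 uM added) Drosophila S3 cells treated with a concentration series. 20 uM Triacsin C defined 100% inhibition.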

[1] = measured here: lipid fluorescence (Fed channel) AC50, cells fed with added oleic acid
[2] = measured here: cell number channel AC50, cells fed with added oleic acid

Compound	cell number change [%]	AC50 [1]	AC50 [2]
CC1(C)C2CCC1(CS(=O)(=O)NC(CC(=O)O)c1cccc(Br)c1)C(=O)C2 (stereo not drawn)	5.56	29.1 µM [rising, single point]	
CCN1CCN(c2cc(C)c3cc(NC(=O)c4ccc(OC)c(OC)c4)ccc3n2)CC1	-20.8	6.51 µM [rising, full curve]	
CCCCNC(=O)COC(=O)c1ccc(SC)cc1OC	95.1		
COC(=O)c1ccccc1OCC(=O)N1CCN(c2ccc(F)cc2)CC1	20.4	29.1 µM [rising, single point]	
CCc1cc2c(SCc3nc4sc(C(C)=O)c(C)c4c(=O)[nH]3)ncnc2s1	31.2	1.84 µM [rising, partial curve, poor fit]	0.00461 µM [rising, full curve, poor fit]
Cc1ccc(C)c(OCc2ccc(C(=O)N3N=C(C(F)F)CC3(O)C(F)F)o2)c1 (stereo not drawn)	-80.4	10.3 µM [falling, partial curve]	20.6 µM [falling, partial curve]
Cc1ccc(S(=O)(=O)NCCC(=O)N2CCC(C)CC2)cc1	5.89	29.1 µM [falling, single point]	
O=C(O)c1ccc(CN2C(=O)c3ccccc3S2(=O)=O)cc1	-49.7	0.00461 µM [falling, full curve, poor fit]	29.1 µM [falling, single point]
O=C(Nc1ccc(F)cc1)c1nc[nH]c1C(=O)Nc1ccccc1[N+](=O)[O-]	-10.3	0.00461 µM [falling, full curve, poor fit]	
COc1cccc(C2SCC(=O)N2c2cccc(C)c2)c1OC (stereo not drawn)	-3.01	9.2 µM [rising, partial curve]	0.651 µM [falling, single point]
COc1cc(OC)cc(C(=O)NNC(=O)c2cc(S(=O)(=O)N3CCOCC3)ccc2F)c1	-4.02	29.1 µM [rising, single point]	
CCN(CC)CC(O)CN1c2ccccc2Sc2ccccc21 (stereo not drawn)			6.51 µM [rising, single point]
C=CCNC(=O)C1CCC(=O)N1S(=O)(=O)c1ccc(C)cc1 (stereo not drawn)	7.67		0.00411 µM [rising, full curve, poor fit]
CCn1c(CNC(=O)c2ccc(Cl)cc2)nnc1SCC(=O)N1CCOCC1	5.41	2.31 µM [falling, full curve]	
O=C(NCC1CCN(c2ccc(S(=O)(=O)N3CCOCC3)cc2)CC1)Nc1ccccc1	-10.5	35.5 µM [falling, single point]	
COc1ccc(C)cc1Nc1nc(N)c2cc(OC)c(OC)cc2n1	-13.9	6.51 µM [falling, single point]	
COCc1cc(C)nc(SCc2ccccc2)c1C#N	-11.7	2.91 µM [rising, single point]	
CCOc1cc(C(=O)Nc2cc(F)ccc2C)ccc1OCC(=O)N1CCOCC1	-4.69	0.184 µM [falling, full curve, poor fit]	

Reformatted as a markdown table: entries from further up

| Compound | cell number change [%] | AC50 [1] | AC50 [2] |
| --- | --- | --- | --- |
| CCN1CCN(c2cc(C)c3cc(NC(=O)c4ccc(OC)c(OC)c4)ccc3n2)CC1 | -20.8 | 6.51 µM [rising, full curve] |  |
| CCCCNC(=O)COC(=O)c1ccc(SC)cc1OC | 95.1 |  |  |

(further entries)

Compound	cell number change [%]	AC50 [1]	AC50 [2]
O=C1c2ccc(Cl)cc2S(=O)(=O)c2cccc(C(=O)N3CCN(c4ccc(Cl)cn4)CC3)c21	-30.8		20.6 µM [falling, partial curve, poor fit]
COc1ccc(N2CCN(Cc3nc4scc(-c5cccs5)c4c(=O)[nH]3)CC2)cc1	54.4	29.1 µM [rising, partial curve, poor fit]	
Cc1ccc(S(=O)(=O)Nc2ccc(-c3nc4ccc(C)cc4s3)cc2)cc1	-46	23.1 µM [falling, single point]	1.16 µM [falling, full curve, poor fit]
COc1cc2c(cc1OC)CN(C(=O)CCCN1C(=O)c3ccccc3C1=O)CC2	-0.534	6.51 µM [rising, partial curve]	0.00517 µM [falling, full curve, poor fit]
C=CCSc1nnc(NC(=O)c2nc(SCC)ncc2Cl)s1		0.731 µM [falling, single point]	
Cc1cc(C(=O)NC2CCCc3c2cnn3-c2ccc(C(C)(C)C)cc2)nn1C (stereo not drawn)	-43.1		2.59 µM [falling, full curve]
COc1ccccc1Nc1cc(N2CCOCC2)c2nonc2c1[N+](=O)[O-]	0.791		
CCOc1ccc(NC(=S)N(CCc2c(C)[nH]c3ccc(C)cc23)Cc2cccnc2)cc1	5.83	0.58 µM [rising, full curve]	
CC1(C)CC(=O)C2=C(C1)N(CC1CCCO1)C(=O)C2(O)C(F)(F)F (stereo not drawn)	-35.9	29.1 µM [falling, single point]	1.84 µM [falling, full curve, poor fit]
O=C(c1ccccc1C(=O)N1CCN(c2ccc(F)cc2)CC1)N1CCN(c2ccc(F)cc2)CC1		1.64 µM [falling, partial curve]	
Cc1ccc(S(=O)(=O)N2CCCC2)cc1C(=O)NCc1ccccn1	16.7	8.2 µM [falling, partial curve, poor fit]	
CN(c1ncc(C(F)(F)F)cc1Cl)n1cc(C(N)=O)c2ccccc2c1=O		1.16 µM [rising, full curve]	
C=CCNC(=O)Cc1c(OC)ccc2cc(Br)ccc12	26.8		
CNc1ccccc1C(C)(C)c1cc(-c2ccco2)n[nH]1	-33	23.1 µM [falling, single point]	20.6 µM [falling, single point]
CCOC(=O)Cn1c(=O)sc2ccccc21	3.67		
C=C(C)COc1ccc(-c2nc(N)ncc2-c2ccccc2OC)c(O)c1	-27.1	32.6 µM [falling, single point]	
CCOC(=O)c1c([N+](=O)[O-])c(C)[nH]c(=O)c1C#N	-44.6	29.1 µM [falling, single point]	29.1 µM [falling, single point]
CC(C)Cn1c(SC(C)C(=O)NCC2CCCO2)nc2ccc(Cl)cc2c1=O (stereo not drawn)	4.23	3.66 µM [falling, single point]	
